# Results as given in PubChem BioAssay AID445 (National Center for Advancing Translational Sciences (NCATS), 2006).
# This is one part of the list. The main result of the screen is listed elsewhere. These columns were measured beside it and carry no call. The list favours compounds with an active or inconclusive main result. The note in brackets gives the kind of curve behind each potency; many fits are weak.
# Test: IkB Signaling
# Conditions: ABC-DLBCL IkBa-CBG/CBR dual luciferase ratio (green luciferase fused to IkBa over red control in OCI-Ly3 lymphoma cells), 4 h
# In short: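 Curves were fitted separately to fusion (green), unfused (red) and ratio luminescence, then classed by r2, magnitude and activity. Cells: OCI-Ly3, 4 h compound plus doxycycline at 37C; 10 uM MG-132 defined full response.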
# [1] = measured here: control luc red channel unless noted
# [2] = measured here: IkB-luc green channel
# [3] = measured here: control luc red channel
compound,measurement,setting,value
COc1ccc(-c2noc(C3CC(=O)N(c4cc(C)cc(C)c4)C3)n2)cc1 (centres undefined),AC50,[1],"10 µM [falling, partial curve]"
Cc1ccc2nc(-c3ccccn3)c(Nc3ccc(F)cc3)n2c1,AC50,[1],"25.1 µM [falling, partial curve]"
COC(=O)c1sccc1NC(=O)CN1CCN(c2ccc(F)cc2)CC1,AC50,[1],"20 µM [falling, partial curve]"
CCOC(=O)C1CCCN(c2ncnc3c2cnn3-c2ccc(C)c(Cl)c2)C1 (centres undefined),AC50,[1],"25.1 µM [falling, single point]"
Cc1ccc(OCC(=O)Nc2ccc3c(c2)nc(CCN2CCOCC2)n3C)cc1,AC50,[1],"7.94 µM [falling, partial curve]"
CCOC(=O)c1ccc(NC(=O)c2oc3ccc4c(c3c2C)C(=O)CC(C)(CC)O4)cc1 (centres undefined),AC50,[1],"0.398 µM [falling, full curve]"
Cn1c(=O)c2c(SCC(=O)NCc3ccco3)nc(-c3ccccc3Cl)nc2n(C)c1=O,AC50,[1],"2 µM [falling, full curve]"
Cc1ccc(S(=O)(=O)N=C2SCCCS2)cc1,AC50,[2],"25.1 µM [rising, partial curve]"
same,AC50,[3],"39.8 µM [rising, single point]"
O=C(NC(O)C(=O)c1ccccc1)c1cccs1 (centres undefined),AC50,[1],"25.1 µM [falling, partial curve]"
CCc1ccccc1NC(=O)c1cc(S(=O)(=O)NCCc2ccc(OC)c(OC)c2)ccc1F,AC50,[1],"6.31 µM [rising, single point]"
COC(=O)c1cccc(NC(=O)Cc2coc3cc(OC)ccc23)c1,AC50,[1],"15.8 µM [falling, partial curve]"
O=C(CCCCCn1c(SCC(=O)c2ccccc2)nc2ccccc2c1=O)NCc1ccco1,AC50,[1],"2.51 µM [falling, full curve, poor fit]"
CCOc1ccc(NC(=O)C(C)Sc2nnc3cc(C)c4ccccc4n23)cc1 (centres undefined),AC50,[1],"15.8 µM [falling, single point]"
COc1cccc(-c2nn(C)c3sc(C(=O)NCc4ccc5c(c4)OCO5)cc23)c1,AC50,[1],"1.26 µM [falling, partial curve]"
CCCC(=O)c1c(C)c2ccccc2n1C,AC50,[1],"15.8 µM [rising, partial curve]"
Cc1cccc(NC(=O)C(=O)NCC(c2cccnc2)N2CCOCC2)c1 (centres undefined),AC50,[1],"20 µM [falling, partial curve]"
Cc1ccc(N2CCN(c3ccc(C)cc3)C2c2ccncc2)cc1,AC50,[1],"25.1 µM [falling, partial curve]"
CC(C)CCNC(=O)c1cccc(Nc2nc3ccccc3n3nnnc23)c1,AC50,[1],"31.6 µM [falling, single point]"
COc1ccc(Cl)cc1NC(=O)c1ccc2nc(Cc3ccccc3)oc2c1,AC50,[1],"5.01 µM [falling, full curve, poor fit]"
COC(=O)c1ccccc1NC(=O)CN1CCC(C(=O)c2ccc3c(c2)OCCO3)CC1,AC50,[2],"2.51 µM [falling, partial curve, poor fit]"
same,AC50,[3],"7.94 µM [falling, partial curve]"
Cc1ccc(Cl)cc1N1CCN(C(=O)C2CCN(S(=O)(=O)c3c(C)nn(C)c3C)CC2)CC1,AC50,[1],"7.94 µM [falling, partial curve]"
CCCCNC(=O)C1CCCN(Cc2nc(-c3ccc(Cl)cc3)oc2C)C1 (centres undefined),AC50,[1],"20 µM [falling, partial curve]"
CCc1ccc(C(=O)c2cn(CC(=O)Nc3ccc(F)c(F)c3)c3cc(OC)c(OC)cc3c2=O)cc1,AC50,[1],"3.16 µM [falling, partial curve]"
CCOc1cccc2cc(-c3nc(-c4ccccc4C)no3)c(=O)oc12,AC50,[1],"2 µM [falling, full curve]"
O=C(Nc1ccc(Cl)cc1)C1CCCN(S(=O)(=O)c2ccc3[nH]c(=O)ccc3c2)C1 (centres undefined),AC50,[1],"20 µM [falling, partial curve]"
CCOC(=O)c1ccccc1NC(=O)CSc1cn(CC(=O)N2CCCCC2)c2ccccc12,AC50,[1],"2.51 µM [falling, full curve]"
Cc1nc2c(-c3ccccc3)c(C)nn2c(C)c1CCC(=O)NC(C)c1ccccc1 (centres undefined),AC50,[1],"39.8 µM [falling, single point]"
COc1cccc(CNC(=O)C2CCCN(S(=O)(=O)c3ccc4c(ccn4C)c3)C2)c1 (centres undefined),AC50,[1],"1 µM [falling, full curve]"
CCOC(=O)c1cccc(NC(=O)c2oc3c(c2C)-c2[nH]ncc2CC3)c1,AC50,[1],"10 µM [falling, partial curve]"
CCCN(C(=O)c1cc2c(s1)-c1ccccc1OC2)c1ccccc1F,AC50,[1],"1.26 µM [falling, full curve]"
CCOc1ccc(NC(=O)C(=O)NCCc2csc(-c3ccc(F)cc3)n2)cc1,AC50,[1],"0.00631 µM [falling, full curve, poor fit]"
Cn1cc(S(=O)(=O)N2CCCCCC2)cc1C(=O)N1CCN(c2ccc(F)cc2)CC1,AC50,[1],"25.1 µM [falling, partial curve, poor fit]"
Cc1cccc(CNC(=O)c2oc3c(c2C)-c2nn(Cc4ccccc4Cl)cc2CC3)c1,AC50,[1],"20 µM [falling, partial curve]"
Cc1ccc(NCc2nnc(SCC(=O)OC3CCCCC3)o2)c(C)c1,AC50,[1],"25.1 µM [falling, partial curve]"
Cc1cc(OCC(=O)Nc2ccc(-c3nc4cc(Cl)ccc4o3)cc2)cc(C)c1Cl,AC50,[1],"25.1 µM [rising, partial curve, poor fit]"
O=C(COc1ccccc1)NCc1ccc2c(c1)CCN2C(=O)c1ccc(F)cc1,AC50,[1],"15.8 µM [falling, partial curve]"
O=C(Nc1ccccc1N1CCCC1)c1cc2ccccc2o1,AC50,[1],"25.1 µM [falling, partial curve]"
Cc1ccc(Cn2c(=O)c3cccnc3n(CC(=O)Nc3cccc(C(F)(F)F)c3)c2=O)cc1,AC50,[1],"0.158 µM [falling, full curve, poor fit]"
COc1ccc(CCNC(=O)c2cc3c(-c4ccccc4F)nn(C)c3s2)c(OC)c1,AC50,[1],"25.1 µM [falling, partial curve]"
COc1ccc(NC(=O)c2cc3c(s2)-c2c(C)cccc2OC3)c(OC)c1,AC50,[1],"12.6 µM [falling, partial curve]"
CCCCNc1nc(Oc2ccc(=O)[nH]n2)nc(N(C)C)n1,AC50,[1],"6.31 µM [rising, single point]"
CCOC(=O)c1cccc(NC(=O)c2cc3c(=O)n(Cc4ccccc4)ccc3nc2C)c1,AC50,[1],"15.8 µM [falling, partial curve]"
COc1ccccc1-c1noc(-c2ccc(N3CCC(C)CC3)c([N+](=O)[O-])c2)n1,AC50,[1],"20 µM [falling, partial curve]"
COc1cc(C(=O)Nc2cc3c(cc2C)n(C)c(=O)c(=O)n3C)cc(OC)c1OC,AC50,[1],"20 µM [falling, partial curve]"
CCOC(=O)C1CCCN(c2ncnc3c2cnn3-c2ccc(Cl)cc2)C1 (centres undefined),AC50,[1],"15.8 µM [falling, partial curve]"
CCC(=O)N1CCc2cc(S(=O)(=O)NC(Cc3ccccc3)C(=O)Nc3ccc(C)cc3)ccc21 (centres undefined),AC50,[1],"12.6 µM [falling, partial curve, poor fit]"
O=C(Nc1ccc(-c2cn3ccsc3n2)cc1)C1COc2ccccc2O1 (centres undefined),AC50,[1],"20 µM [falling, partial curve]"
CCOc1ccc(-n2c(SCc3ccc(C(=O)OC)o3)nc3c([nH]c4ccccc43)c2=O)cc1,AC50,[1],"1 µM [rising, single point]"
CCN1C(=O)c2ccccc2Sc2ccc(NC(C)=O)cc21,AC50,[1],"7.94 µM [falling, full curve, poor fit]"
CCOC(=O)COc1ccc(-c2nnc(-c3ccccc3)o2)cc1,AC50,[1],"3.16 µM [falling, single point]"
CC1=C(C(=O)OC2CCCCCC2)C(c2c(F)cccc2Cl)CC(=O)N1 (centres undefined),AC50,[1],"25.1 µM [falling, partial curve]"
CCOC(=O)Cn1c(=O)oc2cc(S(=O)(=O)Nc3cccc(C)c3)ccc21,AC50,[1],"25.1 µM [falling, partial curve]"
COc1ccc(N(Cc2cccs2)C(=O)COc2cccc(Cl)c2)cc1,AC50,[1],"12.6 µM [falling, partial curve]"
Cc1ccc(NC(=O)N2CCC(c3nc4c(nnn4Cc4cccc(Cl)c4)c(=O)[nH]3)CC2)cc1,AC50,[1],"25.1 µM [falling, single point]"
CCOC(=O)c1c(Nc2ccc(C)cc2)nnc(-c2ccccc2)c1-c1ccccc1,AC50,[1],"7.94 µM [falling, full curve]"
COc1ccc(NCc2cc3cc4c(cc3n(CC(=O)Nc3ccc(F)cc3F)c2=O)OCO4)cc1,AC50,[1],"12.6 µM [falling, partial curve, poor fit]"
COc1ccc2c(C)c(CCC(=O)NCCc3ccccc3OC)c(=O)oc2c1,AC50,[1],"31.6 µM [falling, single point]"
CCc1ccccc1NS(=O)(=O)c1ccc(OC)c2ncccc12,AC50,[1],"7.94 µM [falling, partial curve]"
CCC1CCCCN1C(=O)c1ccc2c(c1)N(Cc1cccc(Cl)c1)C(=O)c1ccccc1S2(=O)=O (centres undefined),AC50,[1],"20 µM [falling, partial curve]"
O=C(CN(Cc1ccc2c(c1)OCO2)C(=O)CSc1nc2ccccc2o1)NC1CCCCC1,AC50,[1],"25.1 µM [falling, partial curve]"
COC(=O)CCSc1nc2sc3c(c2c(=O)n1Cc1ccccc1)CCC(C(C)(C)C)C3 (centres undefined),AC50,[1],"12.6 µM [falling, partial curve]"
CCOc1cc(C2C(C(=O)OC)=C(C)NC3=C2C(=O)c2ccccc23)cc(Cl)c1O (centres undefined),AC50,[1],"25.1 µM [falling, partial curve]"

# 3 entries drawn at random from those above, as already listed:
compound,measurement,setting,value
Cc1ccc(NC(=O)N2CCC(c3nc4c(nnn4Cc4cccc(Cl)c4)c(=O)[nH]3)CC2)cc1,AC50,[1],"25.1 µM [falling, single point]"
Cc1ccc(N2CCN(c3ccc(C)cc3)C2c2ccncc2)cc1,AC50,[1],"25.1 µM [falling, partial curve]"
CCCN(C(=O)c1cc2c(s1)-c1ccccc1OC2)c1ccccc1F,AC50,[1],"1.26 µM [falling, full curve]"
